From article PMC11900803
These are yes or no findings as the source states them, for the method shown. Binding seen in cells or lysates may run through a third protein. Some entries that bind do so weakly or less than the wild type.

Amino acid sequences for entries named in this document (tags omitted). Residues count along the entry.
UniProt P07996, residues 19-1170: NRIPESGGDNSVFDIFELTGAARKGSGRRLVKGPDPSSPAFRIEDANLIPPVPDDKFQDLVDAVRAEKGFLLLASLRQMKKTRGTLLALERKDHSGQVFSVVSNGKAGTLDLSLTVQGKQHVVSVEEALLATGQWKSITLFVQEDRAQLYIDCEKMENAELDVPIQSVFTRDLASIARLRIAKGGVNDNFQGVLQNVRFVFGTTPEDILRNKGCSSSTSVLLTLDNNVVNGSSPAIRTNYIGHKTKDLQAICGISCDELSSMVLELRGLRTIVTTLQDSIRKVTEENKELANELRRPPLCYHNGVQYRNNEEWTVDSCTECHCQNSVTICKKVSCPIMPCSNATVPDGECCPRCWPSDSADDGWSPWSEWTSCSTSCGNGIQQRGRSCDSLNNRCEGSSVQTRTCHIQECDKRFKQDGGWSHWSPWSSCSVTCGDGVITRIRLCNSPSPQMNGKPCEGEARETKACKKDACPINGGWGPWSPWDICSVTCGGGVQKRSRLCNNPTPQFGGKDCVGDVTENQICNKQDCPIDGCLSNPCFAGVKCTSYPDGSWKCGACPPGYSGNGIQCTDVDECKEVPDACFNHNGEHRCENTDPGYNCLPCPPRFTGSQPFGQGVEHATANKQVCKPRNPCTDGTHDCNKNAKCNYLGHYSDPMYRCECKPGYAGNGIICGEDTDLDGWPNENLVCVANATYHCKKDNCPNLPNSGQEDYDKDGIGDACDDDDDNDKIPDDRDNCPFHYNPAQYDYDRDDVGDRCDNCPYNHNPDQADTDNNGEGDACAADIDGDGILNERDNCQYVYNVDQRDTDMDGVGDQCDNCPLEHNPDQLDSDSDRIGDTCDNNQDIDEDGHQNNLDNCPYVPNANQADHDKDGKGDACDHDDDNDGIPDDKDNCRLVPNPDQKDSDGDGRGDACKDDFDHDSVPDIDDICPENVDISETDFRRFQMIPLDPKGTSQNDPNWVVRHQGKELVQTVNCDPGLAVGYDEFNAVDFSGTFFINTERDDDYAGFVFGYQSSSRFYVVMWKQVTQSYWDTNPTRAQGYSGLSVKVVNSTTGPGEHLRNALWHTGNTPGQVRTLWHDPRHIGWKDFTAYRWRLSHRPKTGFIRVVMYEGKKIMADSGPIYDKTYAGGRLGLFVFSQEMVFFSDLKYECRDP
UniProt P56199, residues 29-1179: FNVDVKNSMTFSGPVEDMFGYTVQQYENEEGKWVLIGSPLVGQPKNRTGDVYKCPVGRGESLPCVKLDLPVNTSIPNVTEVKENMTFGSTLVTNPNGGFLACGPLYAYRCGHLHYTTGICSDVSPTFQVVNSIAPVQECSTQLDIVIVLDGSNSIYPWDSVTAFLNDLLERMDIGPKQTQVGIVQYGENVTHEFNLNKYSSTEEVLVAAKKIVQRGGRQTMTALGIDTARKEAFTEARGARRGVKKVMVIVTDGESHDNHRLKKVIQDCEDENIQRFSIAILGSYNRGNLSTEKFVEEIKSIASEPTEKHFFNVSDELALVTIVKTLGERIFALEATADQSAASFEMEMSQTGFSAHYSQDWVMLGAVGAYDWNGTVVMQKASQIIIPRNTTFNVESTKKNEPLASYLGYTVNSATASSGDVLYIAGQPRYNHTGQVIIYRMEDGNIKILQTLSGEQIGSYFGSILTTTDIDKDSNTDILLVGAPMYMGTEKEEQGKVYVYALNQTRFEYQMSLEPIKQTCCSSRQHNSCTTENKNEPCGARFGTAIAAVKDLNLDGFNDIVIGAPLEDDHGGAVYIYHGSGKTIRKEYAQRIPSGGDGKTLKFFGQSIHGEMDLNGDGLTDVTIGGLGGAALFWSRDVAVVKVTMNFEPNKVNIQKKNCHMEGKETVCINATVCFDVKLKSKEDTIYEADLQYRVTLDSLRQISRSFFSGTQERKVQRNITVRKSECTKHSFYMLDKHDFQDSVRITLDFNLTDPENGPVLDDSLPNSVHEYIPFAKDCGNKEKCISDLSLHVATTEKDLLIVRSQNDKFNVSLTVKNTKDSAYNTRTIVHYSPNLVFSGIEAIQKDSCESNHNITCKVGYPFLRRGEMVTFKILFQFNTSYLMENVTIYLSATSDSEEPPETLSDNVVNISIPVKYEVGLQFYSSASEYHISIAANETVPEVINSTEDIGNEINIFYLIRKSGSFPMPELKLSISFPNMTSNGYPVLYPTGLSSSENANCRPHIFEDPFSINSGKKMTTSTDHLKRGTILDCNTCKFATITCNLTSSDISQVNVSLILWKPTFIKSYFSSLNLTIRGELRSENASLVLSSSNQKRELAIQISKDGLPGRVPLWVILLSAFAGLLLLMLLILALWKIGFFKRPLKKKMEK

Target: Thrombospondin 1 (human (endogenous in osteosarcoma cells)) (UniProt P07996)
Assay: co-IP; Immunoprecipitation Kit with Protein A+G Agarose Gel (Beyotime); immunoprecipitates analysed by Western blotting; osteosarcoma cells in dedifferentiation; precipitating antibody and cell line not stated

binding: binds
Substance: Integrin subunit alpha 1 (from UniProt P56199 29-1179) (receptor)
